In PubChem BioAssay AID330 (DTP/NCI, 2004):
The list shows only some results of the screen, not a fair sample: it is rich in T/C values a quarter to a half above the control, in often repeated tests (any T/C) and in doses without a T/C. Further doses and runs are listed elsewhere. T/C: endpoint of the treated group in % of that of the vehicle group. Some entries give survivors of the animals treated and no T/C: the source holds a T/C of zero for them, seemingly a mark for toxic or unscored doses. Some survivor counts are full or nearly so, which does not show that the dose was tolerated: survival well below the control is almost never listed, so the zero probably covers shortened survival too. Counts of survivors are from the toxicity check (mostly the fifth day) where no day follows; animals may have died later. Schedules are NCI's codes, taken here to give the interval after Q, in days (D) or hours (H), and the number of doses after X. Some doses were run more than once; the results are listed from low to high. For survival time, the PubChem record calls one and a half times the control and up active, and a quarter to a half above the control has no call in these data; cut-offs in other NCI protocols can differ. Signs of the kind (2×) stand for listed records that agree. Some T/C values are followed by the survivors on the day toxicity was checked, most often the fifth; without a count, all were alive then.

Tested on: P388 leukemia ip, CD2F1 mice, survival T/C
Assay: NCI In Vivo Anticancer Drug Screen. Data for tumor model P388 Leukemia (intraperitoneal) in CD2F1 (CDF1) mice
Settings: T/C endpoint: median survival time, higher T/C = longer survival
[1] = dose: 200.0 mg/kg/injection, schedule: Q01DX009 (ip), vehicle: saline
[2] = dose: 400.0 mg/kg/injection, schedule: Q01DX009 (ip), vehicle: saline
[3] = dose: 600.0 mg/kg/injection, schedule: Q01DX009 (ip), vehicle: saline
[4] = dose: 100.0 mg/kg/injection, schedule: Q01DX009 (ip), vehicle: Klucel (hydroxypropylcellulose) (HPC)
[5] = dose: 200.0 mg/kg/injection, schedule: Q01DX009 (ip), vehicle: Klucel (hydroxypropylcellulose) (HPC)
[6] = dose: 200.0 mg/kg/injection, schedule: Q01DX005 (ip), vehicle: saline with Tween-80
[7] = dose: 25.0 mg/kg/injection, schedule: Q01DX009 (ip), vehicle: saline with Tween-80
[8] = dose: 100.0 mg/kg/injection, schedule: Q01DX009 (ip), vehicle: saline with Tween-80
[9] = dose: 200.0 mg/kg/injection, schedule: Q01DX009 (ip), vehicle: saline with Tween-80
[10] = dose: 50.0 micrograms/kg/injection, schedule: Q01DX005 (ip), vehicle: Klucel (hydroxypropylcellulose) (HPC)
[11] = dose: 200.0 mg/kg/injection, schedule: Q01DX005 (ip), vehicle: Klucel (hydroxypropylcellulose) (HPC)
[12] = dose: 100.0 mg/kg/injection, schedule: Q01DX009 (ip), vehicle: saline
[13] = dose: 50.0 mg/kg/injection, schedule: Q01DX009 (ip), vehicle: Klucel (hydroxypropylcellulose) (HPC)
[14] = dose: 240.0 mg/kg/injection, schedule: Q01DX005 (ip), vehicle: saline with Tween-80
[15] = dose: 25.0 mg/kg/injection, schedule: Q01DX009 (ip), vehicle: saline

Oc1c(O)c(Br)c(Br)c(Br)c1Br
survivor count [1]: 5 of 6
survivor count [2]: 0 of 6
survivor count [3]: 0 of 6

CCCCCCCCCCCC[N+](C)([O-])CCCCCC[N+](C)([O-])CCCCCCCCCCCC (centres undefined)
survivor count [4]: 6 of 6
survivor count [5]: 0 of 6

CSc1nccn[n+]1C
survivor count (dose: 400.0 mg/kg/injection, schedule: Q01DX001 (ip), vehicle: saline): 0 of 6

C(=N[C@H]1CCCC[C@H]1N=Cc1ccc[nH]1)c1ccc[nH]1
survivor count (dose: 50.0 mg/kg/injection, schedule: Q01DX005 (ip), vehicle: saline with Tween-80): 6 of 6
survivor count [6]: 6 of 6

CC(=O)Nc1nc(C)c(CCCOc2ccc([N+](=O)[O-])cc2)c(=O)[nH]1
survivor count (dose: 240.0 mg/kg/injection, schedule: Q01DX005 (ip), vehicle: Klucel (hydroxypropylcellulose) (HPC)): 6 of 6

O=C1C=CC(=O)N1c1cccc2c1CCCC2
survivor count [7]: 0 of 6
survivor count (dose: 50.0 mg/kg/injection, schedule: Q01DX009 (ip), vehicle: saline with Tween-80): 0 of 6
survivor count [8]: 0 of 6
survivor count [9]: 0 of 6

O=[N+]([O-])c1ccc(/C=C/Sc2ccccc2)o1
survivor count (dose: 200.0 mg/kg/injection, schedule: Q01DX009 (ip), vehicle: suspension in saline): 6 of 6

C=C1C[C@](OC)([C@H](O)C(=O)N[C@@H](OC)[C@@H]2C[C@@H](O)C(C)(C)[C@@H](C[C@@H](COC)OC)O2)O[C@H](C)[C@@H]1C
T/C (dose: 6.25 micrograms/kg/injection, schedule: Q01DX005 (ip), vehicle: Klucel (hydroxypropylcellulose) (HPC)): 142 % of control
T/C (dose: 12.5 micrograms/kg/injection, schedule: Q01DX005 (ip), vehicle: Klucel (hydroxypropylcellulose) (HPC)): 126 % of control
survivor count (dose: 25.0 micrograms/kg/injection, schedule: Q01DX005 (ip), vehicle: Klucel (hydroxypropylcellulose) (HPC)): 6 of 6
T/C [10]: 147 % of control
survivor count [10]: 5 of 6
survivor count (dose: 100.0 micrograms/kg/injection, schedule: Q01DX005 (ip), vehicle: Klucel (hydroxypropylcellulose) (HPC)): 0 of 6
survivor count (dose: 200.0 micrograms/kg/injection, schedule: Q01DX005 (ip), vehicle: Klucel (hydroxypropylcellulose) (HPC)): 0 of 6

c1cc(CSC2=NCCN2)c2cccc(CSC3=NCCN3)c2c1
survivor count (dose: 100.0 mg/kg/injection, schedule: Q01DX005 (ip), vehicle: Klucel (hydroxypropylcellulose) (HPC)): 2 of 6
survivor count [11]: 0 of 6

O=Cc1ccc(O)c(O)c1
T/C [12]: 129 % of control
T/C [1]: 126 and 131 % of control
survivor count [2]: 2 of 6
survivor count [3]: 0 of 6

Cc1ccc(C)c(C(O)C2CC2)c1 (centres undefined)
survivor count (dose: 400.0 mg/kg/injection, schedule: Q04DX003 (ip), vehicle: saline with Tween-80): 1 of 6

CC(=O)OC1OC(CS[As](C2CCCCC2)C2CCCCC2)C(OC(C)=O)C(OC(C)=O)C1OC(C)=O (centres undefined)
survivor count [13]: 3 of 6
survivor count [4]: 0 of 6
survivor count [5]: 0 of 6

CCN(CC)CCSC(=O)C(O)(c1ccccc1)c1ccccc1
survivor count (dose: 10.0 mg/kg/injection, schedule: Q01DX009 (ip), vehicle: saline): 6 of 6
survivor count [12]: 0 of 6 and 3 of 6
survivor count [1]: 0 of 6
survivor count [2]: 0 of 6

CN(C)CCC(=O)c1ccccc1
survivor count [1]: 0 of 6

CCOC(=O)CNc1c2ccc(Cl)cc2nc2ccc(OC)cc12
survivor count [9]: 3 of 6

NC(=O)C1CCCN1C(=O)C1CCCN(CCCCCCN2CCCC(C(=O)N3CCCC3C(N)=O)C2)C1 (centres undefined)
survivor count (dose: 240.0 mg/kg/injection, schedule: Q01DX005 (ip), vehicle: saline): 3 of 6

COc1nc(NC2OC(CO)C(O)C2O)cc(=O)n1C (centres undefined)
survivor count [14]: 5 of 6

c1ccc(-c2nc3ccccc3n2CCc2ccncc2)nc1
survivor count [11]: 0 of 6

Clc1ccc(C[P+](c2ccccc2)(c2ccccc2)c2ccccc2)cc1Cl
survivor count [8]: 0 of 6
survivor count [9]: 0 of 6
survivor count (dose: 400.0 mg/kg/injection, schedule: Q01DX009 (ip), vehicle: saline with Tween-80): 0 of 6

Nc1cc2c3c(cccc3c1)C(=O)N(CCN1CCCC1)C2=O
T/C (dose: 6.5 mg/kg/injection, schedule: Q01DX009 (ip), vehicle: saline with Tween-80): 137 % of control [5 of 6 alive]
T/C (dose: 12.1 mg/kg/injection, schedule: Q01DX009 (ip), vehicle: saline with Tween-80): 135 % of control
T/C [7]: 142 % of control

Cc1ccc2c(c1)C(O)C(N)CCO2 (centres undefined)
survivor count (dose: 400.0 mg/kg/injection, schedule: Q04DX003 (ip), vehicle: saline): 0 of 6

COc1cc(C)c(C2NC(=O)c3ccccc3N2)cc1C (centres undefined)
T/C (dose: 400.0 mg/kg/injection, schedule: Q01DX005 (ip), vehicle: Klucel (hydroxypropylcellulose) (HPC)): 127 and 131 % of control
T/C (dose: 480.0 mg/kg/injection, schedule: Q01DX005 (ip), vehicle: Klucel (hydroxypropylcellulose) (HPC)): 125 % of control
T/C (dose: 800.0 mg/kg/injection, schedule: Q01DX005 (ip), vehicle: Klucel (hydroxypropylcellulose) (HPC)): 142 % of control (2×)

CCCCCCCCCCS(=O)CC(CO)NC(=O)/C=C/c1c(C)[nH]c(=O)[nH]c1=O (centres undefined)
T/C (dose: 1.56 mg/kg/injection, schedule: Q01DX009 (ip), vehicle: other): 131 % of control
T/C (dose: 3.13 mg/kg/injection, schedule: Q01DX009 (ip), vehicle: other): 129 and 134 % of control
T/C (dose: 6.25 mg/kg/injection, schedule: Q01DX009 (ip), vehicle: other): 140 % of control
survivor count (dose: 12.5 mg/kg/injection, schedule: Q01DX009 (ip), vehicle: other): 1 of 6, 2 of 6, 3 of 6
survivor count (dose: 25.0 mg/kg/injection, schedule: Q01DX009 (ip), vehicle: other): 0 of 6 and 1 of 6
survivor count (dose: 50.0 mg/kg/injection, schedule: Q01DX009 (ip), vehicle: other): 0 of 6
survivor count (dose: 100.0 mg/kg/injection, schedule: Q01DX009 (ip), vehicle: other): 0 of 6
survivor count (dose: 200.0 mg/kg/injection, schedule: Q01DX009 (ip), vehicle: other): 0 of 6

CS(=O)(=O)OCCN(CCOS(C)(=O)=O)c1ccc(C=Nc2ccc(-c3csc(Cc4ccccc4)n3)cc2)cc1
T/C (dose: 6.25 mg/kg/injection, schedule: Q01DX009 (ip), vehicle: suspension in saline): 140 % of control
T/C [15]: 141 % of control

[Co].[N-]=C=S.[N-]=C=S.[N-]=C=S.[NH2-].[NH2-].[NH2-]
survivor count (dose: 200.0 mg/kg/injection, schedule: Q01DX005 (ip), vehicle: saline): 1 of 6
survivor count (dose: 400.0 mg/kg/injection, schedule: Q01DX001 (ip), vehicle: saline with Tween-80): 0 of 5
survivor count (dose: 400.0 mg/kg/injection, schedule: Q01DX005 (ip), vehicle: saline): 0 of 6

CC(C)(Oc1ccc(Cl)cc1)C(=O)OCCCC(=O)NC1CC(C)(C)N(O)C(C)(C)C1
survivor count (dose: 100.0 mg/kg/injection, schedule: Q01DX001 (ip), vehicle: saline): 6 of 6

[CH3][Sn]([CH3])([Cl])[CH2]CC[CH2][Sn]([Cl])([Cl])[Cl]
survivor count [15]: 3 of 6
survivor count (dose: 50.0 mg/kg/injection, schedule: Q01DX009 (ip), vehicle: saline): 0 of 6
survivor count [12]: 0 of 6
survivor count [1]: 0 of 6

O=C(CCl)Nc1cc2ccccc2oc1=O
survivor count [14]: 1 of 6

CSc1nc(C(N)=O)cc(=O)[nH]1
survivor count [13]: 3 of 6
survivor count [4]: 2 of 6
survivor count [5]: 1 of 6

CCCCCC(CN(C)C)C(=O)/C=C/c1ccc2c(c1)OCO2 (centres undefined)
survivor count [9]: 0 of 6

C/C(=N\Nc1nc2ccccc2s1)c1ccccn1
survivor count [6]: 3 of 6
